Hit rate of the full screen: of about 52,000 sequences, about 210 (0.4%) were called active.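 The calls were made as follows: active = gene whose silencing raises cell survival under the drug, median off-target-corrected z-score across its silencing RNAs 2 or more; inactive = the rest.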 This is one part of the list.

The experiment can be described thus: Resistance to Poly (ADP-Ribose) Polymerase inhibitor: Gene Identification via Genome-wide siRNA Screen. To be noted: mouse BRCA2 R2336H ES cells, olaparib, CellTiter-Glo viability; stronger effect = higher value. The procedure, abridged: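 Genome-wide siRNA screen (3 siRNAs/gene, 20 nM) in mouse ES cells carrying hypomorphic BRCA2 R2336H; olaparib 500 nM added 48 h post-transfection, CellTiter-Glo viability 72 h later. Normalized to plate-median negative control; MAD z-scores, gene median, seed-adjusted.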
A general note: Cellular ATP, detected with luciferase, serves as a proxy for viable cell number.
Turning to GGAGCUUUGCUUAGCACUGTT against MGC67311, the z-score is inactive: 1.73.

With GGAAGAAUUCACAAAGAUGTT against Snx6, the z-score is inactive: -0.343.

With “GGUUUCCUUUAUCAAGAAGTT against 3300001G02Rik”, the z-score was inactive: 1.44.

In the case of GGUGCCCAUAAUAGCCAUCTT against Polr2c, the z-score was inactive: -0.0259.

For the sequence GGCUUCAAAGGCAAAGUUCTT against Fbf1, the z-score is inactive: -0.802.

In the case of GCUUUUAAAGCAUGGGCAGTT against Alb1, the z-score was inactive: 1.16.

Turning to GGAUCUUCGUAGAAUGACATT against LOC434008, the z-score is inactive: -1.14.

Consider GGCAUGAAAGGUGUCAUACTT against Zfp119, for which the z-score was inactive: -0.64.

Take CGACAAAUAUGAGAGACUCTT against Tsnax: the z-score was inactive: -1.

As for GGAUCUGAAGAACAAGAUCTT against Krt1-17, the z-score is inactive: 1.26.

Turning to GGUACUUUAGACAAGAGAGTT against BC017643, the z-score is inactive: -0.0232.

Consider GGAUUUAGUUCAGAUUUGUTT against Ubp1, for which the z-score is inactive: -0.523.

Regarding GGAACUGAAAAACUCAACUTT against Evi2a, the z-score was inactive: -1.38.

Consider “CGAUCUUAACUCAUUCUUUTT against 9430056A22Rik”, for which the z-score was inactive: 1.47.

GGAAUCUCAAGAGCUACAGTT against Ccl7: the z-score was inactive: 0.211.

For the sequence “GUAUAUUACCGUCGGAAUATT against 1810046I24Rik”, the z-score was inactive: 0.357.

Turning to “CCUCAGCUAAUGAAACUUCTT against 4932411L21Rik”, the z-score is inactive: 0.0399.

Take GCCUCUAAGCUACACUACATT against Olfr1289: the z-score was inactive: 1.9.

In the case of GGAACCUACCUCACCUUUGTT against Fscn3, the z-score is inactive: -1.15.

For GGUGGUGCUUUACGUCAAATT against Bzw2, the z-score is inactive: -0.314.

For CCUACUUAGUGUCAGAAGATT against D6Mm5e, the z-score is inactive: 1.2.

For GGACAUGGAGAUUAGAGUCTT against Tcl1b4, the z-score is inactive: -0.528.

Regarding CCUGGCCAUGUCGAAAGAUTT against Pla2g6, the z-score is inactive: -1.71.

As to GGUAAUGCAAACAUGCGGGTT against Lhfp, the z-score is inactive: -0.556.

For GGGCUGGCAGAAUAGCAUCTT against Foxl2, the z-score was inactive: -1.02.

Regarding CCGAAAGAUCAGCACAUCCTT against Olfr24, the z-score was inactive: 1.31.

As to GGUGUGUAAUGUGCGUGAGTT against Ephb3, the z-score is inactive: 0.169.

Take “GGGAUGUUUAGGUCACCUUTT against 4933434M16Rik”: the z-score was inactive: -0.579.

With GGUGUCCUGGCUGUAUGCATT against Gfra4, the z-score was inactive: 1.77.

GGCCAGUUCUCGUUUGGAATT against Dr1: the z-score was inactive: 0.741.

Consider “CCAGUUUGUACCAUUAUAGTT against Scospondin”, for which the z-score is inactive: 1.47.

On to CCCUAAGGCAUUAUUAUUCTT against Nkd1, for which the z-score was inactive: 1.11.

Regarding GGUGUGCCUAUGUUAUAGUTT against Slc13a5, the z-score is inactive: 1.34.

Take GGAAUUUGGUGACGACAAGTT against Ing4: the z-score is inactive: 0.915.

As to GCUUAUGAUGUAUUUCGUGTT against Ttpa, the z-score was inactive: -1.16.

As for “GGCAAGCAAGCAUAUUAUCTT against D830013H23Rik”, the z-score was inactive: 0.358.

In the case of GCUUGCUAGAUUGGUGUUGTT against Arhgap17, the z-score is inactive: -0.419.

On to “GGAUUAGGAAUCACAGUAGTT against A130092J06Rik”, for which the z-score is inactive: -0.791.

As for GGACAAGUUUGACUGUUACTT against BC022645, the z-score was inactive: 0.613.

On to “GGGACCUUUCCUGACCUAUTT against 2700038C09Rik”, for which the z-score is inactive: 0.413.

On to “GCGUGUCACACUAUGAGUUTT against 4932416A11Rik”, for which the z-score was inactive: -1.37.

On to “GCCUAAGUUCAUUCUGAAATT against 3110023B02Rik”, for which the z-score was inactive: 0.877.

For GCCUGCCAACCAGCGUAAUTT against Pard6a, the z-score is inactive: -1.13.

In the case of “CGAAGUGUUGGGAAGAUUATT against 4732406D01Rik”, the z-score was inactive: 1.41.

On to GGAGAUGGUGCCAGAGAAGTT against Cfc1, for which the z-score was inactive: -1.82.

As for “GGAAAAUCACAAUCACUUGTT against D11Ertd707e”, the z-score was inactive: -0.448.

Regarding GGAUGACCGUGCUAGAAAUTT against Klra2, the z-score was inactive: 1.01.

For GGCUACGUCGAUGUCUCAATT against BC025575, the z-score was inactive: -1.74.

As to GGACUCCCUUCUAGGUGAATT against Mcm7, the z-score was inactive: -1.8.

Regarding GGUCUAUCUACGCUGUGUUTT against Cd36, the z-score is inactive: -0.81.

For the sequence GCUUGUCUAGAAACACCAUTT against Lrfn3, the z-score is inactive: -0.0841.

In the case of GUUCUUCUCAUCUUCCGCUTT against Olfr1506, the z-score was inactive: -2.81.

For GACCCAGAAAAAGGAGGGCTT against Hist1h2ba, the z-score was inactive: 0.579.

Turning to GGAAGAAGCCACCAUGUACTT against Pbx4, the z-score was inactive: 0.01.

In the case of CCACCUGUACACCUAGACUTT against Pex12, the z-score was inactive: -1.36.

As to GCUAAUCGGUAUUGAUGAUTT against Dab2, the z-score was inactive: -0.153.

Turning to GCAAGCUAAAGGUACAGAATT against Ncoa6, the z-score is inactive: -1.02.

Consider GGAGGAGGAAGAAAUACCGTT against Gspt1, for which the z-score is inactive: -0.517.

With GGAUAACCUUGAAUUUCUGTT against Il5, the z-score was inactive: 0.497.

Regarding GGGCAACUAUUGAUGAGGUTT against Centb5, the z-score was inactive: -0.554.

With “CCCACCUUCCAAAAGGAUCTT against 5031434C07Rik”, the z-score was inactive: -0.345.

Take GGAUUUGGAAAAUUGAUGCTT against Ahi1: the z-score was inactive: 0.401.

As to “CCUCCUCUAGGGUAGGUAGTT against A330068P14Rik”, the z-score is inactive: -0.983.

Take GGAGAUGCUGUACAAGCAGTT against Zfp212: the z-score is inactive: 3.07.

For “GGCAACCAUCAAUCUAUUUTT against 5930422O12Rik”, the z-score was inactive: -1.96.

Regarding “GGAGCAAAUGAUCAAUAAATT against A030003A19Rik”, the z-score was inactive: 0.193.

With GCGCAGCACAGGUUUUGAATT against Tieg1, the z-score is inactive: 0.0624.

Take GCUAGUAUUCUAAGAUCUUTT against Fin15: the z-score is inactive: 0.412.

In the case of GGACAGAUUCCGCAUUGAGTT against Mospd3, the z-score is inactive: -2.92.

On to CGCAGUACCUAUUUGAGCGTT against Hs6st1, for which the z-score is inactive: 0.199.

As for “CCUAUGUCUAACAGAUUUGTT against D330050I23Rik”, the z-score is inactive: -0.206.

Turning to GGACCUGACCAGAAGAGCUTT against Pte2a, the z-score was inactive: 0.152.

For “GGUGUUUUAUACACUCUGUTT against 8430406I07Rik”, the z-score was inactive: -0.798.

For the sequence GCAAUGGGUGACAAUAGCATT against Vamp3, the z-score was inactive: -0.955.

For GGCUCUAUGGAAGUUCUUATT against Kcnh8, the z-score was inactive: 0.642.

For GGGUUUUUUUUUUCCUUCCTT against Hsd17b1, the z-score was active: 1.88.

Consider GGGAUCACAGAUCUCUCUGTT against Magi1, for which the z-score is inactive: -0.509.

On to “GCAAUUUAAGUUUAGGAGATT against B130016L12Rik”, for which the z-score was inactive: -0.491.

In the case of CCAAACGAAGGAAGCUGACTT against Taf6l, the z-score is inactive: -1.5.

For GGACAUCCUGGCUUUCUACTT against Insm1, the z-score was inactive: -0.469.

For GGAGGUUUUUAAAUGUGUUTT against Sbk, the z-score is inactive: 0.232.

Turning to GGUUCUUAAAUCAGCAUUGTT against Dnm3, the z-score is inactive: -0.953.

For “CCCUUUGUUAUACUCUAAATT against G430041M01Rik”, the z-score is inactive: -0.427.

On to CGGUCAGAUGUACGAAACCTT against Crygs, for which the z-score was inactive: -0.887.

Take “GGUACUACUGUGGCUAAGCTT against 1700120K04Rik”: the z-score was inactive: 0.647.

With GGAUGUCUCCAUGAAGGAATT against Ccnb2, the z-score was inactive: -0.86.

As to GCCUAUGACAUCUCCGUACTT against Alx3, the z-score is inactive: -0.855.

For GAAGGACACCCUUAUAUUUTT against Olfr1216, the z-score was inactive: -0.326.

As to GCUUGUGGACUACCAUAAGTT against Ptk6, the z-score is inactive: 0.786.

Consider “GCUUAAAAGUGAAGUCUUGTT against C730025P13Rik”, for which the z-score was inactive: -1.37.

As to “CCUGGAACGAAUAUUUGUGTT against C230094A16Rik”, the z-score was inactive: -0.291.

Take GAUUACAGACAGUGGAAAATT against Ndufb3: the z-score was inactive: 0.951.

Regarding GGGCAGAUCUAAAACCUUCTT against Olfr935, the z-score is inactive: -0.265.

For GGACUGAAGGGAGAUUUUUTT against Fstl3, the z-score was inactive: 2.37.

GGGAAUUCUACACUCAUAUTT against Txndc3: the z-score was inactive: 0.361.

As for GGAAAUGGACUGUUUAGGCTT against Fgf15, the z-score is inactive: 0.493.

With UUAUAGGCCUAUUGGUACATT against Olfr1208, the z-score is inactive: -2.43.

For the sequence GGCCAGAAAACAUGCUUUATT against Pbx1, the z-score was inactive: 3.32.

“CGGGACAUUCGUGAUCUUATT against 4930511J11Rik”: the z-score was inactive: -2.48.

Consider GGAGAAGAAAGAAAAGCUUTT against Nusap1, for which the z-score is inactive: -0.243.

Consider GGCAAAAAAAGGCUUUAUUTT against Nde1, for which the z-score was inactive: 1.13.

For the sequence GGAAGUGGCUAUGACAGAGTT against Atp1a3, the z-score was inactive: -0.078.

As to GGAUGAUUAUUGGAGCUAUTT against Vtn, the z-score was inactive: 0.647.

In the case of GGAGCCUUGGAAGUGAUCUTT against AI661017, the z-score was inactive: -2.27.

The values are drawn from PubChem BioAssay AID1347423 (Functional Genomics Laboratory (NCATS/FGL), 2020).
